From PubChem BioAssay AID256 (DTP/NCI, 2004)
The list shows only some results of the screen, not a fair sample: its compounds were picked by chemical class. Other doses and runs of a compound may be missing. T/C is the treated group as % of the vehicle group. Where survival is the endpoint, the PubChem record calls one and a half times the control and up active, and a quarter to a half above the control has no call in these data; cut-offs in other NCI protocols can differ. Schedules are NCI's codes, taken here to give the interval after Q, in days (D) or hours (H), and the number of doses after X. Some T/C values are followed by the survivors on the day toxicity was checked, most often the fifth; without a count or a note in brackets, all were alive then. Some entries were tested several times; the results are listed from low to high. Some entries show no survivor count and are marked so; the dose need not have been tolerated.

Tested on: CD2F1 mice, L1210 leukemia ip, survival T/C
Assay: NCI In Vivo Anticancer Drug Screen. Data for tumor model L1210 Leukemia (intraperitoneal) in CD2F1 (CDF1) mice
Conditions: T/C endpoint: mean survival time, higher T/C = longer survival
Procedure, shortened: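 In this screen, transplantable tumors were grown in mice given either the compound or its vehicle. Results were expressed as the treated measurement relative to the control measurement.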

Question: `CC(C)(C)[Si](C)(C)OP(N)(=O)N(CCCl)CCCl` (stereo not drawn) was tested. Which T/C (dose: 15.6 mg/kg/injection, schedule: Q01DX001 (ip), vehicle: distilled water + Tween-80) did it give?
Answer: 100 % of control

Question: And the T/C (dose: 31.3 mg/kg/injection, schedule: Q01DX001 (ip), vehicle: distilled water + Tween-80)?
Answer: 110 % of control

Question: And the T/C (dose: 62.5 mg/kg/injection, schedule: Q01DX001 (ip), vehicle: distilled water + Tween-80)?
Answer: 98, 107, 117 % of control

Question: And the T/C (dose: 125.0 mg/kg/injection, schedule: Q01DX001 (ip), vehicle: distilled water + Tween-80)?
Answer: 98, 110, 132 % of control

Question: What about the T/C (dose: 250.0 mg/kg/injection, schedule: Q01DX001 (ip), vehicle: distilled water + Tween-80) of the same molecule?
Answer: 103, 111, 138 % of control

Question: What about the T/C (dose: 500.0 mg/kg/injection, schedule: Q01DX001 (ip), vehicle: distilled water + Tween-80) of the same molecule?
Answer: 88 [5 of 6 alive], 103, 117 % of control

Question: How did the T/C (dose: 0.25 mg/kg/injection, schedule: Q01DX010 (ip), vehicle: saline) turn out when `NC(Cc1ccccc1N(CCCl)CCCl)C(=O)O` (stereo not drawn) was run?
Answer: 165 % of control [survivor count not shown]

Question: And the T/C (dose: 0.5 mg/kg/injection, schedule: Q01DX010 (ip), vehicle: saline)?
Answer: 180 % of control [survivor count not shown]

Question: What about the T/C (dose: 1.0 mg/kg/injection, schedule: Q01DX010 (ip), vehicle: saline) of the same molecule?
Answer: 226 % of control [survivor count not shown]

Question: And the T/C (dose: 2.0 mg/kg/injection, schedule: Q01DX010 (ip), vehicle: saline)?
Answer: 98 % of control [survivor count not shown]

Question: Which results are given for `ClCCN1CCCCC1CCl` (stereo not drawn)?
Answer: T/C (dose: 0.44 mg/kg/injection, schedule: Q01DX009 (ip), vehicle: saline): 102 % of control [survivor count not shown]; T/C (dose: 0.66 mg/kg/injection, schedule: Q01DX009 (ip), vehicle: saline): 107 % of control [survivor count not shown]; T/C (dose: 1.0 mg/kg/injection, schedule: Q01DX009 (ip), vehicle: saline): 107 % of control [survivor count not shown]
